Test results published in US6511963B1 (priority 1992, dated 2003).
Peptide text beside a SMILES is read from it.

Assay: Relative helicity of the peptide core
Type: physicochemical
Set-up: key: 1=unordered; 2=one turn; 3=loosened alpha or 310 helix; 4=stabilized α helix in water; 5=a full helix
Settings: scale of 1 to 5, least helical to most helical

## CC[C@H](C)[C@H](NC(=O)[C@H](CCC(N)=O)NC(=O)[C@H](CO)NC(=O)[C@@H](NC(=O)[C@H](CC(N)=O)NC(=O)[C@H](CO)NC(=O)[C@H](CCC(N)=O)NC(=O)[C@H](CC(C)C)NC(=O)[C@H](CC(C(=O)O)C(=O)O)NC(=O)[C@H](CC(C(=O)O)C(=O)O)NC(=O)[C@H](CCC(=O)O)NC(=O)CN)C(C)C)C(=O)N[C@@H](CCCNC(=N)N)C(=O)N[C@@H](C)C(=O)N[C@@H](CCCCN)C(=O)N[C@@H](CO)C(=O)N[C@@H](CC(N)=O)C(N)=O [310 helix ConG] (HELM PEPTIDE1{G.E.[O=C(O)C(C[C@H](N[*:1])C(=O)[*:2])C(=O)O].[O=C(O)C(C[C@H](N[*:1])C(=O)[*:2])C(=O)O].L.Q.S.N.V.S.Q.I.R.A.K.S.N.[am]}$$$$V2.0)
  Helicity: 3

## CC[C@H](C)[C@H](NC(=O)[C@H](CC(C)C)NC(=O)[C@H](C)NC(=O)[C@H](CC(C)C)NC(=O)[C@H](C)NC(=O)[C@H](C)NC(=O)[C@H](CCC(N)=O)NC(=O)[C@H](CC(C)C)NC(=O)[C@H](CC(C(=O)O)C(=O)O)NC(=O)[C@H](CC(C(=O)O)C(=O)O)NC(=O)[C@H](CCC(=O)O)NC(=O)CN)C(=O)N[C@@H](CCCNC(=N)N)C(=O)N[C@@H](C)C(=O)N[C@@H](CCCCN)C(=O)N[C@@H](CO)C(=O)N[C@@H](CC(N)=O)C(N)=O [alpha helix ConG, GEggLQAALALJRAKSN] (HELM PEPTIDE1{G.E.[O=C(O)C(C[C@H](N[*:1])C(=O)[*:2])C(=O)O].[O=C(O)C(C[C@H](N[*:1])C(=O)[*:2])C(=O)O].L.Q.A.A.L.A.L.I.R.A.K.S.N.[am]}$$$$V2.0)
  Helicity: 5
